The other results are listed elsewhere or left out.
What was measured:
Assay in all cases: log2 fold change, soluble protein after heating vs DMSO (PISA); higher = thermal stabilisation; K562 cells, 10 uM, 30 min; active = over 0.2 and 3.5 SD of the protein, either way, in both replicates (recomputed)
[1] = compound: C/C(=N\NC(=O)C1=CC(=CC=C1)S(=O)(=O)N2CCOCC2)/C3=C(C=CC(=C3)Cl)O
Outline: (§1)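 K562 cells at 2×10^6 cells/mL were given 10 μM compound for 30 min. Aliquots then went through 3 min of heating across 48°C-58°C, were pooled, and were extracted in PBS with 0.5% NP-40 at 4°C, and the supernatant after 21,000xg for 90 min was quantified by TMTpro 16plex LC-MS/MS with channel sums equalised. Thermal stability relative to control samples, from duplicates, is given as log2 fold change.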

Amino acid sequences for entries named in this document (tags omitted). A change or cut given only in a name is not applied to a line headed by its entry.
UniProt O76082: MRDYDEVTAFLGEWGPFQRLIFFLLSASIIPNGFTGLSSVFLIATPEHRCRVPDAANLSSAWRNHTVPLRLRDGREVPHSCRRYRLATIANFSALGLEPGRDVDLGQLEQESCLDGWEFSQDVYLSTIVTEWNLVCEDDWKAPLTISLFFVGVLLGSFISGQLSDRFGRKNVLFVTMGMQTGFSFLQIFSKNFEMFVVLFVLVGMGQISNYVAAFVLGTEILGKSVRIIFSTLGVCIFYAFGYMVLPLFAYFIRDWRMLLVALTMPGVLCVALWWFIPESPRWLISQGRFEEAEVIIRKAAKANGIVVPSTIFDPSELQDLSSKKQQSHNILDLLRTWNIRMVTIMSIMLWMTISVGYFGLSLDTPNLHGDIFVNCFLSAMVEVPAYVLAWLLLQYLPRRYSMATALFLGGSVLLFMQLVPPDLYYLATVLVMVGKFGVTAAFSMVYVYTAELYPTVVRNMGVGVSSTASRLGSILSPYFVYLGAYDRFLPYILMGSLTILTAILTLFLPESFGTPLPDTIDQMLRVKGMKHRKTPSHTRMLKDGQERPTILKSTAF
UniProt Q9NY26: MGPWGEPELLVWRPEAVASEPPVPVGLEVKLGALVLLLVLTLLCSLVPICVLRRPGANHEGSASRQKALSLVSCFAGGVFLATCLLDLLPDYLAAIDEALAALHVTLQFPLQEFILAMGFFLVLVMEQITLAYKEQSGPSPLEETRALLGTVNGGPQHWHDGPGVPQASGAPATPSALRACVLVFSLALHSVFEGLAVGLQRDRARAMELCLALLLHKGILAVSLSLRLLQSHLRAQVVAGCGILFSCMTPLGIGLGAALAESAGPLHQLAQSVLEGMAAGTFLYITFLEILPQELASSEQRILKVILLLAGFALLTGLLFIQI
UniProt Q9HAB3: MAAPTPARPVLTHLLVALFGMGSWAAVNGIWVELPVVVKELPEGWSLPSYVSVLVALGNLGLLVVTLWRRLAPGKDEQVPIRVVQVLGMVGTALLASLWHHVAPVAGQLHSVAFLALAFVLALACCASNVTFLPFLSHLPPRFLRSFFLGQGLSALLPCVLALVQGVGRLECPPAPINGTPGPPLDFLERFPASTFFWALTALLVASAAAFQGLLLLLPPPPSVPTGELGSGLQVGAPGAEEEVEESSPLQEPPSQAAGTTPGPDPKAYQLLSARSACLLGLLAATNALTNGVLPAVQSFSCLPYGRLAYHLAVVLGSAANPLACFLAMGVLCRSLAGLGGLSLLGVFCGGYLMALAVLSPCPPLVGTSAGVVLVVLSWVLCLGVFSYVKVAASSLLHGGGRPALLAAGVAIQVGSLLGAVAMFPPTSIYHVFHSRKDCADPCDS
UniProt Q96BI1: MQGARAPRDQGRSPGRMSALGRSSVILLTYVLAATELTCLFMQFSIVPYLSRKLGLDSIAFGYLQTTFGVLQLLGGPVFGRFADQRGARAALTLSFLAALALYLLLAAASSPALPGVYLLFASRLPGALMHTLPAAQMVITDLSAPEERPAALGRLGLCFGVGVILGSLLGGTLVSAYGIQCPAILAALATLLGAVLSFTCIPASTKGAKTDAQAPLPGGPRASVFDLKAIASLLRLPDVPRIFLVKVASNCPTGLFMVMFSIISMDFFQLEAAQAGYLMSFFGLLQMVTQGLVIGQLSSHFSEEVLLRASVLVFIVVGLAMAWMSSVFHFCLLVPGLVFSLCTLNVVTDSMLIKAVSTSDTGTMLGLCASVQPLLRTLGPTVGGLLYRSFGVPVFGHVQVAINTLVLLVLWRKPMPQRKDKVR
UniProt O95258: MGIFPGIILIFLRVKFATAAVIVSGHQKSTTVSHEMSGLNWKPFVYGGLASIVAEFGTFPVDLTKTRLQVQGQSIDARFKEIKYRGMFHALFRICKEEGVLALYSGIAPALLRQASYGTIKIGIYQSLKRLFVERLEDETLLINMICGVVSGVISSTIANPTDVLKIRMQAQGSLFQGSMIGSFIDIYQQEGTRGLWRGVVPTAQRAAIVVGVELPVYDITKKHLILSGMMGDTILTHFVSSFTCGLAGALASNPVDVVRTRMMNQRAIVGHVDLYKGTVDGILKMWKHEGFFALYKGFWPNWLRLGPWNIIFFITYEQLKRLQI
UniProt Q2M3R5: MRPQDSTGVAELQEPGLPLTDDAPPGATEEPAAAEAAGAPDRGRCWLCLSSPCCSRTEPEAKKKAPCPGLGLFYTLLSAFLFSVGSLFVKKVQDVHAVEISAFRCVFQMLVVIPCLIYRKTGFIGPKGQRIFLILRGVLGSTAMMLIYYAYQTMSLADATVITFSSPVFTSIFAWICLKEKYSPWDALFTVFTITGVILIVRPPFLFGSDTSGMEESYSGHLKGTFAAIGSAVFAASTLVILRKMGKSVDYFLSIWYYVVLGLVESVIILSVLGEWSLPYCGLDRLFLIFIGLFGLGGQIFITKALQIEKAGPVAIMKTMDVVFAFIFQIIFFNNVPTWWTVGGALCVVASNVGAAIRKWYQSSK
UniProt Q96H78: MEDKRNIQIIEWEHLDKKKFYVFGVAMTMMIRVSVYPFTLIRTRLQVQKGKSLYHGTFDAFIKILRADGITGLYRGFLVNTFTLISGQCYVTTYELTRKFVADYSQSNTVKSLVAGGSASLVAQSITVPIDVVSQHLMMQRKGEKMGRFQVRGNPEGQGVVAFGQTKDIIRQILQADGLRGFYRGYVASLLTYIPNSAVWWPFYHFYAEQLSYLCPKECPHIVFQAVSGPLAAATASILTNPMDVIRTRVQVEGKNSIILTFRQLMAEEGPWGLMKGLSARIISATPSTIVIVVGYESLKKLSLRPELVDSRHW
UniProt Q3KQZ1: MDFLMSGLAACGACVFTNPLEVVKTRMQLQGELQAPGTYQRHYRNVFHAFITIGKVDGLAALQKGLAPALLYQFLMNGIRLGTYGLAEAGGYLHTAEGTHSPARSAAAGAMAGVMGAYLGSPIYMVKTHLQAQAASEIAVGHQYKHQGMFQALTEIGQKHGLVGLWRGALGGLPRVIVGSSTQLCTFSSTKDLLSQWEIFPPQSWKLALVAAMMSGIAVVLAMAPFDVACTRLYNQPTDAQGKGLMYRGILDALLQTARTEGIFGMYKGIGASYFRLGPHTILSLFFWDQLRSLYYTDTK
UniProt Q7Z2H8: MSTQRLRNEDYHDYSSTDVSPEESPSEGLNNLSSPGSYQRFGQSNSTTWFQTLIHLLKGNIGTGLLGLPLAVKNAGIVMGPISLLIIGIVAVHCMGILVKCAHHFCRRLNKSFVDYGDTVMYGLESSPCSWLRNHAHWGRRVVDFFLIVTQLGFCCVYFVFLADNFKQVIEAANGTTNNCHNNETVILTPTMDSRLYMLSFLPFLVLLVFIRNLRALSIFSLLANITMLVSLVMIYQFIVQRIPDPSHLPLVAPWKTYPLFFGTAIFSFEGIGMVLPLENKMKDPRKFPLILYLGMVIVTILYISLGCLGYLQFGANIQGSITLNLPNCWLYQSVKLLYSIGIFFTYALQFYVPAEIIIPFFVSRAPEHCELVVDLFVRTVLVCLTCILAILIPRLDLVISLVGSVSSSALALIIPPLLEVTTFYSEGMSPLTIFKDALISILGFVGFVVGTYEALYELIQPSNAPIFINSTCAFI
UniProt Q9UGH3: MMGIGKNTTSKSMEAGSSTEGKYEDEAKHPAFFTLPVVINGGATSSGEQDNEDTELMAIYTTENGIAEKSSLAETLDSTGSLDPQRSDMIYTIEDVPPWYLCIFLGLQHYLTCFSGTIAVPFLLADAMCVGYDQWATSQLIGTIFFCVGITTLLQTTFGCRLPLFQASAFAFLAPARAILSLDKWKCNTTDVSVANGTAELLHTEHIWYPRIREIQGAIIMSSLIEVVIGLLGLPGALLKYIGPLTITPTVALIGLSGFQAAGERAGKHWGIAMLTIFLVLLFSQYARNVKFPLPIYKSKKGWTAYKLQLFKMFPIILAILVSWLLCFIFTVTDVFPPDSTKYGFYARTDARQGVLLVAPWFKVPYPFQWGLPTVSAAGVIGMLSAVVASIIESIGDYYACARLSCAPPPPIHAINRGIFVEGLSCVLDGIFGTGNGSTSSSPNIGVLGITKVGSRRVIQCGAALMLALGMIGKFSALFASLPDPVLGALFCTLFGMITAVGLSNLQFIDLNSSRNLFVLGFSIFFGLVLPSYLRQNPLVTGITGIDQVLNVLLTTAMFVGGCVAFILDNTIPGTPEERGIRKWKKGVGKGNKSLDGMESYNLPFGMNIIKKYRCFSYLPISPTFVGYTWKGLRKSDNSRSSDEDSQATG
UniProt Q8N1S5: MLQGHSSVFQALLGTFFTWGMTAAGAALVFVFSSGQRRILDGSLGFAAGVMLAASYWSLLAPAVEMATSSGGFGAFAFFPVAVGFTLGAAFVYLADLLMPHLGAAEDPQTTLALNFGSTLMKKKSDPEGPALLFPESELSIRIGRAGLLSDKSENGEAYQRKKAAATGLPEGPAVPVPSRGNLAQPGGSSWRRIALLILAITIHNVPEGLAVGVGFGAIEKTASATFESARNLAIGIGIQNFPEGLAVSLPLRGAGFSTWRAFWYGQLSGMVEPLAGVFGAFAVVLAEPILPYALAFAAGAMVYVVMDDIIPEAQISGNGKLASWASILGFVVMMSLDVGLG
UniProt Q9Y2P4: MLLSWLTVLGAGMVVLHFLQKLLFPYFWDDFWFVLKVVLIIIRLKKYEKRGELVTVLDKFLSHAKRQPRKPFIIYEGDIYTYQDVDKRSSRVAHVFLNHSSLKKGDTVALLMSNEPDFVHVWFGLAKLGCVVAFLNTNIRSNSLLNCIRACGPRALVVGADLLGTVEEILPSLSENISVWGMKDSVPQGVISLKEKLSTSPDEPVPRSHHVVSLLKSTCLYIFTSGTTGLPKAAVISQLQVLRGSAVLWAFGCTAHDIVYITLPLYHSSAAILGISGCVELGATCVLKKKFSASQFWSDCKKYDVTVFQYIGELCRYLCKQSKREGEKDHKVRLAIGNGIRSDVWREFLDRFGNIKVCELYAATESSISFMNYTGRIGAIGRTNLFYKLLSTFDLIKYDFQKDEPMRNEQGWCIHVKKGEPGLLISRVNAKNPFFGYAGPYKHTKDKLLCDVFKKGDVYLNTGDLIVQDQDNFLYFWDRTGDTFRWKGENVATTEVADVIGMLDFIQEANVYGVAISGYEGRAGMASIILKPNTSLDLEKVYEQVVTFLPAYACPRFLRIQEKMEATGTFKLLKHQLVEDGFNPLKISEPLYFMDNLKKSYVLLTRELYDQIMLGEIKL
UniProt P09131: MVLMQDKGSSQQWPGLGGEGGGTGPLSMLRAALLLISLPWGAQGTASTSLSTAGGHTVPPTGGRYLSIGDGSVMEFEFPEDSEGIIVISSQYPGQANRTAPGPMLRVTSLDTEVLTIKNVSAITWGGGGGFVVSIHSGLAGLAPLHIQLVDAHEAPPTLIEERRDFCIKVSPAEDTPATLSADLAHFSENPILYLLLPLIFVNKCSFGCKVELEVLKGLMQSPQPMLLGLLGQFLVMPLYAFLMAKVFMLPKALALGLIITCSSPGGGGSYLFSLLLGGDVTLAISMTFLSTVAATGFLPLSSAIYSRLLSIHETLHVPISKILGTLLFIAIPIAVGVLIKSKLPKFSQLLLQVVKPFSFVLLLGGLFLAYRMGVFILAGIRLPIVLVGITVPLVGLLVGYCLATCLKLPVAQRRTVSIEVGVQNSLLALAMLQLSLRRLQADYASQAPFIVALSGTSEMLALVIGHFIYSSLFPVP
UniProt Q5SVS4: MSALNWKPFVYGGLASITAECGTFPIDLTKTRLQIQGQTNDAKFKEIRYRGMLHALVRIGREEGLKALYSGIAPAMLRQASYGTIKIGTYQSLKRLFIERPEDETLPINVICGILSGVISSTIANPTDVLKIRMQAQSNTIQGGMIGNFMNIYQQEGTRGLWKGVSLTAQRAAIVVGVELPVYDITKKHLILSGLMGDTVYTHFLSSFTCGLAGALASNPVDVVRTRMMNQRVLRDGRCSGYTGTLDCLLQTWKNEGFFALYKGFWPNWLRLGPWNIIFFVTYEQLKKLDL
UniProt Q6P1K1: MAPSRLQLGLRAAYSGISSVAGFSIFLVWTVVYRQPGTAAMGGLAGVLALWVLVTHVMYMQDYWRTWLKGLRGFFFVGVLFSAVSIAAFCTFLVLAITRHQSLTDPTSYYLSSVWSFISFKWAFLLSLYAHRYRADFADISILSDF
UniProt Q9NRA2: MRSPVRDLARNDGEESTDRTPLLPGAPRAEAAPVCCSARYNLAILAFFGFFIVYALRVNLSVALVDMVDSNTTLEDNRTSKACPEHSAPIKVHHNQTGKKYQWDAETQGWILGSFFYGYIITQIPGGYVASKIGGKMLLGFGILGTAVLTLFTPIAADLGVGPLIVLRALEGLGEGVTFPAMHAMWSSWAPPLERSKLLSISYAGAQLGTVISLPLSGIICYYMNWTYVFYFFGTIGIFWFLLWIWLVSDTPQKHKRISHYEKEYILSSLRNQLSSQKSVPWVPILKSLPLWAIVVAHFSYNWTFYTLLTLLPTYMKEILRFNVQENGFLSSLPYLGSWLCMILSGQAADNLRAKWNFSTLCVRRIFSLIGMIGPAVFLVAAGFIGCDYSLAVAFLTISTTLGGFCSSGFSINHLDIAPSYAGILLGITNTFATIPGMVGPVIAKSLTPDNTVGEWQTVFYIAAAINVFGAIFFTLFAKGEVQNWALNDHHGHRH

[2] = compound: C1=CC(=C(C=C1Cl)C2=NC3=NC=CN=C3C(=N2)NC4=CC=NC=C4)F
Outline: as §1

[3] = compound: C1=CC2=C(C=CC(=C2)/C=C\3/C(=O)NC(=NCC4=CC=CS4)S3)N=C1
Outline: as §1

[4] = compound: C1=CC2=NC=CN=C2C=C1/C=C/3\C(=O)NC(=O)S3
Outline: as §1

[5] = compound: C1=CC=C(C=C1)C2=NC(=C(N2)C3=CC=NC=C3)C4=CC(=C(C=C4)Cl)O
Outline: as §1

[6] = compound: C1=CC=C2C(=C1)C3=NNC4=CC=CC(=C43)C2=O
Outline: as §1

[7] = compound: C1CCN(C1)C(=O)NC2=CC=CC(=C2)NC3=NC=C(C(=N3)NCCC4=CN=CN4)Br
Outline: as §1

[8] = compound: C1CN(CCC1(CC2=CC=C(C=C2)Cl)N)C3=NC=NC4=C3C=CN4
Outline: as §1

[9] = compound: C#Cc1cccc(Nc2ncnc3cc(OCCOC)c(OCCOC)cc23)c1 [erlotinib]
Outline: as §1

[10] = compound: C1=CC(=CC=C1C2=NC3=C(N2)C=C(C=C3)C(=O)N)OC4=CC=C(C=C4)Cl
Outline: as §1

Measured: log2 fold change

SLC35A2 isoform 4 (UniProt P78381)
inactive: [1] 0.107 | [2] -0.067 | [3] 0.133 | [4] 0.024 | [5] 0.049 | [6] -0.043 | [7] 0.007 | [8] 0.018

SLC46A1 (UniProt Q96NT5)
inactive: [9] 0.094 | [1] -0.017 | [10] -0.054 | [3] -0.042 | [6] 0 | [7] -0.193 | [8] 0.091

SLC22A5 isoform 3 (UniProt O76082)
inactive: [2] -0.01 | [4] 0.071

SLC26A11 (UniProt I3L0N9)
inactive: [4] 0.051

SLC35E2B (UniProt P0CK96)
inactive: [4] 0.05 | [5] 0.124

SLC39A1 (UniProt Q9NY26)
inactive: [9] 0.123 | [10] 0.053

SLC52A2 (UniProt Q9HAB3)
inactive: [9] -0.051 | [10] 0.01 | [4] 0.001 | [7] -0.364 | [8] -0.055

SLC22A18 (UniProt Q96BI1)
inactive: [9] -0.045 | [2] 0.017 | [10] -0.02 | [4] 0.016 | [5] -0.026 | [7] 0.007 | [8] 0.012

SLC25A14 isoform 3 (UniProt O95258)
inactive: [9] 0.015 | [1] -0.001 | [10] 0.026 | [3] 0.067 | [4] 0.098 | [5] 0.079 | [6] 0.002 | [7] 0.002 | [8] 0.208

SLC35G1 (UniProt Q2M3R5)
inactive: [1] -0.085 | [3] 0.129 | [6] 0.049 | [7] -0.131 | [8] 0.071

SLC25A44 (UniProt Q96H78)
inactive: [1] -0.027 | [2] 0.051 | [3] 0.033 | [4] -0.036 | [6] -0.05 | [7] 0 | [8] 0.1

SLC25A35 (UniProt Q3KQZ1)
inactive: [9] 0.25 | [1] -0.003 | [10] 0.052 | [3] 0.041 | [6] 0.034 | [7] 0.006 | [8] -0.058

SLC36A1 (UniProt Q7Z2H8)
inactive: [9] 0.104 | [10] 0.1

SLC22A23 (UniProt A1A5C7)
inactive: [9] 0.014 | [10] 0.045 | [5] -0.033

2 successive entries already listed:
SLC35G1 (UniProt Q2M3R5)
inactive: [1] -0.085 | [3] 0.129 | [6] 0.049 | [7] -0.131 | [8] 0.071

SLC25A44 (UniProt Q96H78)
inactive: [1] -0.027 | [2] 0.051 | [3] 0.033 | [4] -0.036 | [6] -0.05 | [7] 0 | [8] 0.1

Further results:

SLC66A1 (UniProt Q6ZP29)
inactive: [9] 0.261 | [10] 0.004 | [4] 0.036

SLC23A2 (UniProt Q9UGH3)
inactive: [9] 0.025 | [10] -0.065 | [4] 0.643 | [7] -0.044 | [8] 0.05

SLC39A11 (UniProt Q8N1S5)
inactive: [9] -0.042 | [1] -0.009 | [10] 0.05 | [3] 0.043 | [4] 0.009 | [5] 0.07 | [6] 0.053 | [7] -0.144 | [8] 0.019

SLC27A6 (UniProt Q9Y2P4)
inactive: [9] 0.042 | [2] -0.296 | [10] -0.045 | [4] -0.03 | [5] 0.107 | [7] -0.053 | [8] 0

SLC26A2 (UniProt P50443)
inactive: [2] -0.052

SLC3A2 (UniProt F5H867)
inactive: [9] 0.071 | [2] -0.003 | [10] 0.052 | [4] -0.003 | [7] -0.021 | [8] 0.08

SLC39A9 (UniProt Q9NUM3)
inactive: [7] -0.521 | [8] -0.099

SLC10A3 (UniProt P09131)
inactive: [9] 0.071 | [2] -0.017 | [10] -0.063 | [4] 0.034 | [7] -0.096 | [8] 0.085

SLC43A3 (UniProt Q8NBI5)
inactive: [2] -0.07

SLC36A4 (UniProt Q6YBV0)
inactive: [9] 0.034 | [2] 0.274 | [10] 0.054 | [4] -0.023 | [5] -0.14

SLC25A30 (UniProt Q5SVS4)
inactive: [9] -0.026 | [1] -0.028 | [10] 0.094 | [3] 0.026 | [5] -0.064 | [6] -0.03

SLC48A1 (UniProt Q6P1K1)
inactive: [9] -0.07 | [10] 0.043 | [4] 0.001 | [5] -0.104

SLC66A3 (UniProt Q8N755)
inactive: [9] 0.12 | [2] 0.166 | [10] -0.015

SLC17A5 (UniProt Q9NRA2)
inactive: [9] 0.035 | [1] 0.033 | [10] -0.015 | [3] 0.028 | [5] 0.046 | [6] -0.087

Reference: the supplement of paper PMC10849652
